We go through ten molecules from PMC10163288.

Some of the results follow.

B1: il10ra_site1_normal_mot_HHH_b1_05937_af2_000000262_0001_20_37_H_._HHH_b1_00814_af2_0001_0000200016_0000001_0 (protein)
chain: SSSSDEEEEELRKLLEELEKLIEEGDREKVLRLAIRILRLAFRLSDEEVVQEVWRLALESASSSS
B2: il10ra_site1_sap_23_mot_9c3e5e2d2b9ffb70dc788f52fbfab6d5_0001_1_000000198_0001_1_14_H_._HHH_b1_04873_0001_0000200016_0000002_0_0001 (protein)
chain: SSSSSSDIAELAQEALHRAIQLGDEEVFQAIWELAKKYAREGDPRYREELEELLEELRSSSSSSS
B3: il10ra_site1_normal_mot_HHH_b1_03094_000000294_0001_1_20_H_._HHH_b1_05478_af2_0001_0000100005_0000001_0 (protein)
chain: SSSSDEENQEALELSLEALRLALRGDPEKAREVLEEAFELAERANNERLLRIIEELLEALHSSSS
B4: il10ra_site1_normal_mot_8756ee2cf497b5429c717dfc0c0bcfd6_0001_000000186_0001_1_13_H_._HHH_b2_06136_af2_0001_0000400011_0000001_0_af2pred_0001 (protein)
chain: SSSSSSRLFELLREIAELLHEGNPEEAEELIEEAEELAKERNDDVARAQLEFLRKIVERLSSSSS
B5: il10ra_site1_normal_mot_8756ee2cf497b5429c717dfc0c0bcfd6_0001_000000186_0001_1_13_H_._HHH_b1_00839_0001_0000300027_0000001_1 (protein)
chain: SSSSDEEFKLAEEVIREALQLYEEGNEEEAEKLVEEAIRLAEELNNDVILFQLRYLLRHLESSSS
B6: il10ra_site1_sap_22_mot_HHH_b2_03425_000000200_0001_22_39_H_._HHH_b2_06606_0001_0000100007_0000002_0_0001_af2pred_0001 (protein)
chain: SSSSSEEEEEARELAERIKELIKEGDEEEVQKLFHELWELAVKYNDKEAAKLLIELLELRSSSSS
B7: il10ra_site1_normal_mot_HHH_b1_03031_af2_000000117_0001_17_33_H_._HHH_b1_01503_af2_0001_0000500014_0000001_0_af2pred_0001 (protein)
chain: SSSSDEERLEELEERAKELIEEGDHEEAKKVLLEALFLAAKLKDPEVILKLLRLTAEVLQLSSSS
B8: il10ra_site1_sap_15_mot_HHH_b2_01205_000000166_0001_1_19_H_._HHH_b1_04361_0001_0000300020_0000001_0_0001_af2pred_0001 (protein)
chain: SSSSDEDEKRAELTARFARHAYEQGDEEAAKYLLKAAVEILRKAGNEELVEELEEILRQISSSSS
B9: il10ra_site1_normal_mot_HHH_b1_05326_000000242_0001_1_20_H_._HHH_b1_01966_0001_0000100019_0000001_0 (protein)
chain: SSSSSDNEEALHLSVEAFRLLLRGDPEEARRVLEEALELAEEAGNERLARIIEEQLRLASSSSSS
B10: il10ra_site1_normal_mot_HHH_b1_02997_000000220_0001_39_52_H_._HHH_b1_02580_0001_0000100023_0000001_1 (protein)
chain: SSSSTEESHRIYELLRRAAELRHEGNPEEARELLEEAEELAEEAGNENFLWNIEYLLREVNSSSS

In the test the target is il10ra, Q13651. As to the kind of experiment: yeast display titration.
As to B1, the “apparent Kd” value was “inactive: no binding seen”.

Turning to B2, the “apparent Kd” value is “inactive: no binding seen”.

Regarding B3, the “apparent Kd” value is “inactive: no binding seen”.

In the case of B4, the “apparent Kd” value was “inactive: no binding seen”.

As to B5, the “apparent Kd” value was “inactive: no binding seen”.

Regarding B6, the “apparent Kd” value is “inactive: no binding seen”.

For the molecule B7, the “apparent Kd” value is “inactive: no binding seen”.

In the case of B8, the “apparent Kd” value was “inactive: no binding seen”.

As to B9, the “apparent Kd” value is “inactive: no binding seen”.

Turning to B10, the “apparent Kd” value is “inactive: no binding seen”.
